Test results as given in PubChem BioAssay AID2685 (National Center for Advancing Translational Sciences (NCATS), 2010).
This is one part of the list. These are further read-outs of the screen, such as a control signal, another cell line or another target. No call is given for them. The list favours compounds with an active or inconclusive main result. The note in brackets gives the kind of curve behind each potency; many fits are weak.

Assay: qHTS Assay for Lipid Storage Modulators in Drosophila S3 Cells;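 as to cell number change: cells counted by Cell Tracker Red CMTPX staining in the red channel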
Conditions: BODIPY lipid droplet fluorescence, 18-24 h; for cell number change: measured here: cell count max response, cells fed with added oleic acid
Procedure, shortened: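 Laser-scanning cytometry quantifies lipid droplet accumulation (500–530 nm total intensity; droplet/cell object ratio) in oleic acid-fed (400 uM added) Drosophila S3 cells treated with a concentration series. 20 uM Triacsin C defined 100% inhibition.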

[1] = measured here: lipid fluorescence (Fed channel) AC50, cells fed with added oleic acid
[2] = measured here: cell number channel AC50, cells fed with added oleic acid

Cc1ccc(NC(=O)Cn2cccc2C2=NC(c3ccccc3)CO2)cc1C (configuration not stated)
cell number change: 29.2%
AC50 [1]: 29.1 µM [rising, single point]

CC(=O)c1cc(CN2CCN(Cc3ccccc3)C(CCO)C2)cs1 (configuration not stated)
AC50 [1]: 1.84 µM [falling, partial curve, poor fit]

Cc1ccc(C)c(Sc2ccc(S(=O)(=O)Nc3ccc(C(=O)O)cc3)cc2)c1
cell number change: -15.8%

O=C(O)C1CCCCC1C(=O)NCc1cn2ccccc2n1 (configuration not stated)
cell number change: -34.3%
AC50 [2]: 4.11 µM [falling, full curve]
AC50 [1]: 3.66 µM [falling, full curve]

COCCn1c(SCc2nnc(-c3ccccc3)o2)nc2sc3c(c2c1=O)CCC3
cell number change: -10.3%

CCOc1ccc(N(C(=O)C2CCCO2)C2C=CS(=O)(=O)C2)cc1 (configuration not stated)
cell number change: -33.4%
AC50 [2]: 18.4 µM [falling, single point]
AC50 [1]: 0.58 µM [falling, full curve]

CC(=O)Nc1ccc(S(=O)(=O)N2CCC(C(=O)N[C@@H](Cc3ccccc3)C(=O)O)CC2)cc1
cell number change: 3.52%
AC50 [2]: 7.31 µM [rising, partial curve, poor fit]
AC50 [1]: 6.51 µM [rising, single point]

CCCCn1c(=O)cc(N2CCOCC2)[nH]c1=O
cell number change: -105%
AC50 [2]: 25.9 µM [falling, partial curve]
AC50 [1]: 23.1 µM [falling, partial curve]

COc1cc(C(=O)OCC(C)=O)ccc1OCc1c(C)noc1C
cell number change: 18.1%
AC50 [2]: 3.66 µM [rising, single point]
AC50 [1]: 20.6 µM [rising, single point]

COc1ccc(NC(=O)COc2ccc(C)nc2[N+](=O)[O-])cc1S(N)(=O)=O
cell number change: -3.89%
AC50 [1]: 18.4 µM [rising, single point]

COc1ccc(/C(N)=N/OC(=O)/C=C/c2ccccc2)cc1
cell number change: 7.92%

Fc1cccc2sc(N3CCCC3)nc12
cell number change: -14.8%
AC50 [1]: 16.4 µM [falling, single point]

CCN(CC)C(=O)c1ccc(/C=C/c2c[nH]c3ccccc23)[n+](C)c1
cell number change: 9.68%
AC50 [1]: 32.6 µM [falling, single point]

CCOC(=O)c1sc(N)c(C#N)c1COC(=O)CNC(=O)c1cc(OC)c(OC)c(OC)c1
cell number change: 53.1%
AC50 [2]: 0.164 µM [rising, full curve]

O=C(O)c1cn(Cc2cccnc2)c(=O)c2ccccc12
cell number change: -34.7%
AC50 [2]: 14.6 µM [falling, partial curve]

CCOc1ccc(N/C=C/C(=O)c2ccccc2)c([N+](=O)[O-])c1
cell number change: -9.58%

COc1ccc(-c2ccnc3c(C#N)cnn23)cc1
cell number change: 21.3%
AC50 [2]: 0.13 µM [rising, full curve, poor fit]
AC50 [1]: 32.6 µM [rising, single point]

CC1(C)CC(=O)C2=C(C1)OC1OC(=O)CC21C (configuration not stated)
cell number change: 38.5%
AC50 [2]: 0.517 µM [rising, partial curve, poor fit]

CCOc1ccc(C2C(C(=O)c3ccc(C)o3)=C(O)C(=O)N2CCN2CCOCC2)cc1OC (configuration not stated)
cell number change: 0.978%

COc1ccc(CCNC(=O)COc2ccc3c(c2)OCO3)cc1
cell number change: -18.2%
AC50 [1]: 29.1 µM [falling, single point]

Cc1ccc(C(=O)CNc2cccc([N+](=O)[O-])c2)cc1
cell number change: 26.3%

CCN(CC(=O)N1CCCC1)S(=O)(=O)c1ccc(Br)cc1
cell number change: 35.8%

Cc1cc(NS(=O)(=O)c2ccc(NC(=O)CCCOc3cccc(C)c3C)cc2)no1
cell number change: 41.5%
AC50 [2]: 0.82 µM [rising, full curve, poor fit]
AC50 [1]: 6.51 µM [rising, single point]

CCCN1CCN(CCCNC(=O)C2CCCN(c3nnc(-n4cccc4)s3)C2)CC1 (configuration not stated)
cell number change: 19.1%
AC50 [1]: 13 µM [rising, partial curve]

COc1ccc(-c2[nH]ncc2-c2ccc(Cl)cc2)c(O)c1
cell number change: -51.3%
AC50 [2]: 11.6 µM [falling, partial curve]
AC50 [1]: 18.4 µM [falling, single point]

COc1ccccc1CCNS(=O)(=O)c1c(C)n(C)c(=O)n(C)c1=O
cell number change: -144%
AC50 [2]: 29.1 µM [falling, partial curve]
AC50 [1]: 23.1 µM [falling, partial curve]

CCCc1cc(=O)n2[nH]c(SCc3ccc(Cl)cc3)nc2n1
cell number change: -26.8%
AC50 [1]: 29.1 µM [falling, single point]

Cc1cccc(Oc2ccc(NC(=O)c3ccccc3C(=O)O)cc2)c1C
cell number change: 59.1%
AC50 [2]: 20.6 µM [rising, partial curve, poor fit]

COc1ccc(C2=Nn3c(nnc3-c3ccccn3)SC2)cc1OC
AC50 [1]: 29.1 µM [falling, single point]

CN1C(=O)c2cccc(NCCCN3C(=O)c4ccccc4C3=O)c2C1=O
cell number change: 7.23%
AC50 [1]: 6.51 µM [rising, full curve]

Cc1cccc(NC(=O)CSCC(=O)Nc2cccc3ncccc23)c1
cell number change: -50%
AC50 [2]: 29.1 µM [falling, single point]

Cc1ccc(NC(=O)CNC(=O)c2ccc(C)o2)cc1
cell number change: -0.787%
AC50 [1]: 29.1 µM [rising, single point]

Cc1ccc(NC(=O)c2scc3c2CCCC3)cc1
cell number change: 32.6%
AC50 [2]: 5.8 µM [rising, partial curve]
AC50 [1]: 20.6 µM [rising, partial curve]

Cc1ccc(N2CC(C(=O)N3CCC(C(=O)Nc4nncs4)CC3)CC2=O)cc1 (configuration not stated)
cell number change: -5.13%
AC50 [1]: 0.651 µM [falling, single point]

Cc1nnc2ccc(-c3ccc(NS(=O)(=O)c4ccc(F)cc4F)cc3)nn12
cell number change: -38.8%
AC50 [2]: 13 µM [falling, partial curve]

CC(C)CN(C(=O)CSc1nnc(-c2ccco2)o1)c1c(N)n(Cc2ccccc2)c(=O)[nH]c1=O
cell number change: 18.6%
AC50 [2]: 0.366 µM [rising, partial curve, poor fit]
AC50 [1]: 1.64 µM [rising, partial curve, poor fit]

COc1ccc(NC(=O)CSc2nnc(C3CC3)n2C)cc1S(=O)(=O)N1CCCCC1
cell number change: -9.87%
AC50 [1]: 4.11 µM [falling, single point]

O=S(=O)(NCCn1ccc2ccccc21)c1ccccc1
cell number change: 3.43%
AC50 [1]: 20.6 µM [falling, partial curve]

N#C/C(=C\c1cccnc1)c1ccc([N+](=O)[O-])cc1
cell number change: -8.55%
AC50 [1]: 16.4 µM [falling, single point]

COc1cc(/C=N/n2c(C3CCCCC3)n[nH]c2=S)ccc1O
cell number change: 12.8%
AC50 [1]: 3.26 µM [rising, single point]

Cn1ccnc1Sc1ccc(/C=N/NC(=O)c2ccccc2O)cc1[N+](=O)[O-]
cell number change: -19.3%

CSCCC(NC(N)=O)C(=O)NCc1cccc(Cl)c1 (configuration not stated)
cell number change: -47.1%
AC50 [2]: 3.66 µM [falling, full curve]
AC50 [1]: 29.1 µM [falling, single point]

CN(C)CCCN1CC(=O)N2[C@@H](Cc3c([nH]c4ccccc34)C2(C)C)C1=O
cell number change: -0.708%
AC50 [1]: 0.13 µM [rising, full curve, poor fit]

CSc1c(-c2ccccc2)nc2ccc(Cl)cc2c1C(=O)O
cell number change: 38.9%
AC50 [1]: 0.13 µM [rising, partial curve, poor fit]

CN(CCOC(=O)c1ccc2c(c1)OCO2)C(C)(C)C
cell number change: -2.65%

Cc1cc(NC(=O)CSCC(=O)Nc2nc3c(C)cccc3s2)no1
cell number change: -67%
AC50 [2]: 23.1 µM [falling, partial curve]
AC50 [1]: 4.61 µM [falling, partial curve]

COc1ccc(C)c2sc(NC(=O)C3CC3)nc12
cell number change: 4.61%
AC50 [1]: 0.00517 µM [rising, full curve, poor fit]

CC(C)C(NC(=O)c1c(F)cccc1F)C(=O)NCc1ccncc1 (configuration not stated)
AC50 [1]: 1.03 µM [rising, full curve, poor fit]

O=C(Nc1ccc(Nc2ccccc2)cc1)c1ccc(Br)cc1
cell number change: -46.1%
AC50 [2]: 16.4 µM [falling, single point]

O=C(Nc1ccc2nc(-c3cccs3)c(-c3cccs3)nc2c1)NC1CC1
AC50 [1]: 0.00517 µM [rising, full curve, poor fit]

CC1CCCCC1NC(=O)COC(=O)c1ccc(N(C)C)cc1 (configuration not stated)
cell number change: 4.93%
AC50 [1]: 1.84 µM [rising, partial curve]

CCOc1[nH]n(-c2ccc(Cl)cc2)c(=O)c1C=Nc1ccc(Cl)cc1
cell number change: -25.3%
AC50 [1]: 32.6 µM [falling, single point]

CC(NC(=O)c1ccc(Cl)c(Cl)c1)c1ccc(-c2ccccc2)cc1 (configuration not stated)
cell number change: -8.37%
AC50 [1]: 0.146 µM [falling, full curve, poor fit]

CN1C(c2ccc(F)cc2)=CS/C1=C(\C#N)c1nnc2n1-c1ccccc1SC2
cell number change: -11.3%
AC50 [1]: 14.6 µM [rising, single point]

Cc1ccc(-n2nnc3c(=O)n(CC(=O)N4CCOCC4)cnc32)cc1
cell number change: -20.3%
AC50 [1]: 2.06 µM [falling, partial curve, poor fit]

CCCn1c(N)c(C(=O)COC(=O)CCS(=O)(=O)c2ccc(C)cc2)c(=O)[nH]c1=O
cell number change: -12.7%
AC50 [1]: 0.146 µM [rising, full curve, poor fit]

CN(CC(O)COc1ccc(S(=O)(=O)N2CCOCC2)cc1)C1CCCCC1 (configuration not stated)
cell number change: -15.7%
AC50 [1]: 0.231 µM [falling, full curve, poor fit]

Brc1ccc(-c2ccc(/C=N/Nc3nncc(-c4ccccc4)n3)o2)cc1
cell number change: 58.8%
AC50 [2]: 16.4 µM [rising, partial curve]
AC50 [1]: 0.651 µM [rising, single point]
